PubChem BioAssay AID1508597 – Cure First – 2020

Purpose: 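Survival screen with siRNA in ovarian cancer cells derived from patients, with or without rucaparib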 (primary screen)
System: human ovarian carcinoma lines grown from tumours: OCI-P5x (papillary serous) and OCI-C5x (clear cell)
Reagents: siRNA pool against human genes, 1.25 pmol siRNA per well
Duration: 72 h or 96 h, depending on the cell culture
Conditions: rucaparib 20 µM (about IC30) or vehicle, present until read-out
Rucaparib or vehicle: Rucaparib
Cell line: OCI-C5x (clear cell)
Measurement: 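ATP luminescence measured at 72 or 96 h according to the culture, then normalised and expressed as percent viability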
Direction: viability, normalised: higher = more viable cells remaining
Rule for the call: 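a well counts as a hit if its normalised viability is under 80 percent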
Meaning of the calls: active = viability under 80%; inactive = viability 80% or more
Shown is a random part of the about 2,100 reagents, under one of the conditions tested. 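Calls flag viability under 80% in either arm, not effects specific to rucaparib; the reference for percent is not stated.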 A reagent listed more than once was tested more than once; the source does not tell the runs apart. The record does not give: the 100% reference.

| gene symbol | PubChem SID | technical replicate | viability, normalised (%) | Call |
| --- | --- | --- | --- | --- |
| TTBK1 | SID405527753 | 1 | 64.5 | active |
| TTBK1 | SID405527753 | 2 | 45.6 | active |
| TTBK1 | SID405527753 | 3 | 51.1 | active |
| BRSK2 | SID405527527 | 1 | 42.8 | active |
| BRSK2 | SID405527527 | 2 | 70.9 | active |
| BRSK2 | SID405527527 | 3 | 48.9 | active |
| NME2 | SID405527078 | 1 | 38.2 | active |
| NME2 | SID405527078 | 2 | 32.5 | active |
| NME2 | SID405527078 | 3 | 37.8 | active |
| KDM8 | SID405526917 | 1 | 47.8 | active |
| KDM8 | SID405526917 | 2 | 31 | active |
| KDM8 | SID405526917 | 3 | 42.8 | active |
| MTHFR | SID405528485 | 1 | 54.8 | active |
| MTHFR | SID405528485 | 2 | 41.4 | active |
| MTHFR | SID405528485 | 3 | 54 | active |
| NEIL1 | SID405526354 | 1 | 46.1 | active |
| NEIL1 | SID405526354 | 1 | 36.2 | active |
| NEIL1 | SID405526354 | 2 | 67.9 | active |
| NEIL1 | SID405526354 | 2 | 60.4 | active |
| NEIL1 | SID405526354 | 3 | 48.7 | active |
| NEIL1 | SID405526354 | 3 | 84.7 | inactive |
| HHEX | SID405526857 | 1 | 67.7 | active |
| HHEX | SID405526857 | 2 | 57.1 | active |
| HHEX | SID405526857 | 3 | 48 | active |
| FTO | SID405526802 | 1 | 38.2 | active |
| FTO | SID405526802 | 2 | 36.8 | active |
| FTO | SID405526802 | 3 | 42.9 | active |
| DHX57 | SID405528221 | 1 | 52.4 | active |
| DHX57 | SID405528221 | 2 | 36.5 | active |
| DHX57 | SID405528221 | 3 | 43.5 | active |
| RERE | SID405527244 | 1 | 53.2 | active |
| RERE | SID405527244 | 2 | 49.1 | active |
| RERE | SID405527244 | 3 | 49 | active |
| PIAS1 | SID405527161 | 1 | 26.6 | active |
| PIAS1 | SID405527161 | 2 | 23.6 | active |
| PIAS1 | SID405527161 | 3 | 18.9 | active |
| POLN | SID405528438 | 1 | 43.8 | active |
| POLN | SID405528438 | 2 | 66.4 | active |
| POLN | SID405528438 | 3 | 55.3 | active |
| SCYL3 | SID405527856 | 1 | 77.3 | active |
| SCYL3 | SID405527856 | 2 | 54.1 | active |
| SCYL3 | SID405527856 | 3 | 64.2 | active |
| PIK3C3 | SID405527553 | 1 | 60.4 | active |
| PIK3C3 | SID405527553 | 2 | 60.9 | active |
| PIK3C3 | SID405527553 | 3 | 48.1 | active |
| PTPRC | SID405527212 | 1 | 37.8 | active |
| PTPRC | SID405527212 | 2 | 39.7 | active |
| PTPRC | SID405527212 | 3 | 33.5 | active |
| PDE7B | SID405526701 | 1 | 63.8 | active |
| PDE7B | SID405526701 | 2 | 53.9 | active |
| PDE7B | SID405526701 | 3 | 58.8 | active |
| FRMPD4 | SID405526801 | 1 | 38.8 | active |
| FRMPD4 | SID405526801 | 2 | 40.8 | active |
| FRMPD4 | SID405526801 | 3 | 36 | active |
| SOX14 | SID405527357 | 1 | 47.1 | active |
| SOX14 | SID405527357 | 2 | 48.4 | active |
| SOX14 | SID405527357 | 3 | 44.2 | active |
